Experimental data from the supplement of paper PMC10849652.
Some of the results follow.

The chains behind the UniProt entries cited, without tags or fusion partners. Where a name states a change or a piece, a line headed by the entry shows the natural chain unless it says otherwise.
UniProt Q9ULL8: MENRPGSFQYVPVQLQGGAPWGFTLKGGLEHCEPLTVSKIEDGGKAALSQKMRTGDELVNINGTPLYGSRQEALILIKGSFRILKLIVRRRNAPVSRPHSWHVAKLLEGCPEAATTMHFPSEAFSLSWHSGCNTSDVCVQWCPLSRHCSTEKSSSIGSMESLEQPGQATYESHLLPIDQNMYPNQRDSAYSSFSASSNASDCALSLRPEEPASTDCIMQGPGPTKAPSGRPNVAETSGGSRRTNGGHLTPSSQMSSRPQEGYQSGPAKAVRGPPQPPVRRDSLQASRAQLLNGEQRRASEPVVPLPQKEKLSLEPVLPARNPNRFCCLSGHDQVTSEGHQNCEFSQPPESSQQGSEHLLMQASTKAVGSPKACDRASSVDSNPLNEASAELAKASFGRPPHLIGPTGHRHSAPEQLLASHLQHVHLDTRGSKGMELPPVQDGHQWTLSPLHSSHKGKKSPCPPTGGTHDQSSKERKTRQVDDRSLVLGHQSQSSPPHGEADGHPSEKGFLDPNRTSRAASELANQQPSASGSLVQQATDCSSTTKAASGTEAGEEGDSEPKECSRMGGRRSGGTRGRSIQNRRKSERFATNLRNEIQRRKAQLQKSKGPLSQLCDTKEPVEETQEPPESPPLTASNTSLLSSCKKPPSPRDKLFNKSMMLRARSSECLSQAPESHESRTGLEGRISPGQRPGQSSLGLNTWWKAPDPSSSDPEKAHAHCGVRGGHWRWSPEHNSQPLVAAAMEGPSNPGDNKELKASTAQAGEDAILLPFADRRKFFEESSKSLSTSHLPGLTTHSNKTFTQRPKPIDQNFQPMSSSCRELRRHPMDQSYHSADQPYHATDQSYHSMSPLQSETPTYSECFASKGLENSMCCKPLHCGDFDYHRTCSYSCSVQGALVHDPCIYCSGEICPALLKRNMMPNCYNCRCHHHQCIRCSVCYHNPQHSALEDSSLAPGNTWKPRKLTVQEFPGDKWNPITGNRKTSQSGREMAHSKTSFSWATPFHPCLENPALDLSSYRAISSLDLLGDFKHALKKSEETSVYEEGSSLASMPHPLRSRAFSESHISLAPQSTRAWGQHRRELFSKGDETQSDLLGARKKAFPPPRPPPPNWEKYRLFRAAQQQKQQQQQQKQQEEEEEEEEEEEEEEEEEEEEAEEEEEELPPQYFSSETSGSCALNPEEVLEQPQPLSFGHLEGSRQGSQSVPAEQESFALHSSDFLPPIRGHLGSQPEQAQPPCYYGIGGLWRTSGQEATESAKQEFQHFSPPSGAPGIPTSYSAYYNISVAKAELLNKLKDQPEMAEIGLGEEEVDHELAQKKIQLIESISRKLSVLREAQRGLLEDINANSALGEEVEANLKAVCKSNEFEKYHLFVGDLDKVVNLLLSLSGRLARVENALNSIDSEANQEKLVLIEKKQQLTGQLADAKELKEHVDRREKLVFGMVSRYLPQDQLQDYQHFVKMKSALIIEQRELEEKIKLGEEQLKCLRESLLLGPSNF
UniProt O75635: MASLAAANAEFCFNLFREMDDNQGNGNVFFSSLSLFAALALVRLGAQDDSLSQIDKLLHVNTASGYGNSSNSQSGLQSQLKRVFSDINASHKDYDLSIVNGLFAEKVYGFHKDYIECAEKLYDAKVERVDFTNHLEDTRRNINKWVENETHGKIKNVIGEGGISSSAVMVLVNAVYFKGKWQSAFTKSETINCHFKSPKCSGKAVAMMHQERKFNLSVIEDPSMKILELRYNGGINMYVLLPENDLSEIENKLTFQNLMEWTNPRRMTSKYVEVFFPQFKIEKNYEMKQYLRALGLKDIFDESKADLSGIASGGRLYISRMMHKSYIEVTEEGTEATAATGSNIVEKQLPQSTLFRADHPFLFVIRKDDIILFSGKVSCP
UniProt Q96LD8: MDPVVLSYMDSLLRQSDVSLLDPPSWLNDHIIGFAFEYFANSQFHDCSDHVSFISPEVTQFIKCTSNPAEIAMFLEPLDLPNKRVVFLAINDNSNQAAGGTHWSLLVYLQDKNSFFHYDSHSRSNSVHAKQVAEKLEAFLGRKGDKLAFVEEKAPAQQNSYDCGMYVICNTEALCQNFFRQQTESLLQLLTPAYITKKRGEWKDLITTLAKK
UniProt P51688: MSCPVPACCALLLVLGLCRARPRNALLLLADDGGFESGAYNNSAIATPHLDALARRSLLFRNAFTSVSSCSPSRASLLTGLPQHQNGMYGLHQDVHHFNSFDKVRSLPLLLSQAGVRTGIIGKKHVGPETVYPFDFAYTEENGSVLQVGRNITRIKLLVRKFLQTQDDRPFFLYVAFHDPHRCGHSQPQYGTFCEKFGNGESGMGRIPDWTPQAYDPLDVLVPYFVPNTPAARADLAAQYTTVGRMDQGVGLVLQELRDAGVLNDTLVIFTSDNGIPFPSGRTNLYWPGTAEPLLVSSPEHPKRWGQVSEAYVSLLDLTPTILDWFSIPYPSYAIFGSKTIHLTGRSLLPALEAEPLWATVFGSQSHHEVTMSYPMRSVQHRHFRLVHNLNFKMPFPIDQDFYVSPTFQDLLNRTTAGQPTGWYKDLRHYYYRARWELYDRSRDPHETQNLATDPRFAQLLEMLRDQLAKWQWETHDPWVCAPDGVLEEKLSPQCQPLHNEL
UniProt P05155: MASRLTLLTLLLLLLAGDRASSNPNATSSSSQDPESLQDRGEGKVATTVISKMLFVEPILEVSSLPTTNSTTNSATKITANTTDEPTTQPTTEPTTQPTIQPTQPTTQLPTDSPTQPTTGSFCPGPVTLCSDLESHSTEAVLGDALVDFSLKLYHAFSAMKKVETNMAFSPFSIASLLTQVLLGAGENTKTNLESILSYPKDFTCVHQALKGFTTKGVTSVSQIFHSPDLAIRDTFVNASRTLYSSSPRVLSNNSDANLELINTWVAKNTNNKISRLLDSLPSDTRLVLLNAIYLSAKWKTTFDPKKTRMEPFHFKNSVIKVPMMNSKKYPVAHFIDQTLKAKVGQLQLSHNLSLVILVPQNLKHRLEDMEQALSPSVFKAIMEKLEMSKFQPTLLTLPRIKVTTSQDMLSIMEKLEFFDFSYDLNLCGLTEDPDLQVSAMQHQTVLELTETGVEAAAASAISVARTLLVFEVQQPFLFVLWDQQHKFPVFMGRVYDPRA
UniProt Q8NC51: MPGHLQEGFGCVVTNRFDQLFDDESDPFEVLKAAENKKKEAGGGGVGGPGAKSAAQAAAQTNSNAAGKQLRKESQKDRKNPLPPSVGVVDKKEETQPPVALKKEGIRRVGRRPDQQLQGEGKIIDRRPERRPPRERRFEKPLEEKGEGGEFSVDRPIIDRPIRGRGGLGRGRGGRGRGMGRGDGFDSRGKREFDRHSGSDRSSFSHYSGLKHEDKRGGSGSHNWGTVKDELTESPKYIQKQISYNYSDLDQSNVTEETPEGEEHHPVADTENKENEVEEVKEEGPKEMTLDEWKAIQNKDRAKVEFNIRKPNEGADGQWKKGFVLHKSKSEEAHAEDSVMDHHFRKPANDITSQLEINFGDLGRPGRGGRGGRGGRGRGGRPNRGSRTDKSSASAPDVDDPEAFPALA
UniProt Q8WVK7: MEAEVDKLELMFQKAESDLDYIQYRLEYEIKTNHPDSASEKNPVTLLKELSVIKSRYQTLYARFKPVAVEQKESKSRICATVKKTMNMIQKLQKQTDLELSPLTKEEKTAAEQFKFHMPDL
UniProt Q9H0K1: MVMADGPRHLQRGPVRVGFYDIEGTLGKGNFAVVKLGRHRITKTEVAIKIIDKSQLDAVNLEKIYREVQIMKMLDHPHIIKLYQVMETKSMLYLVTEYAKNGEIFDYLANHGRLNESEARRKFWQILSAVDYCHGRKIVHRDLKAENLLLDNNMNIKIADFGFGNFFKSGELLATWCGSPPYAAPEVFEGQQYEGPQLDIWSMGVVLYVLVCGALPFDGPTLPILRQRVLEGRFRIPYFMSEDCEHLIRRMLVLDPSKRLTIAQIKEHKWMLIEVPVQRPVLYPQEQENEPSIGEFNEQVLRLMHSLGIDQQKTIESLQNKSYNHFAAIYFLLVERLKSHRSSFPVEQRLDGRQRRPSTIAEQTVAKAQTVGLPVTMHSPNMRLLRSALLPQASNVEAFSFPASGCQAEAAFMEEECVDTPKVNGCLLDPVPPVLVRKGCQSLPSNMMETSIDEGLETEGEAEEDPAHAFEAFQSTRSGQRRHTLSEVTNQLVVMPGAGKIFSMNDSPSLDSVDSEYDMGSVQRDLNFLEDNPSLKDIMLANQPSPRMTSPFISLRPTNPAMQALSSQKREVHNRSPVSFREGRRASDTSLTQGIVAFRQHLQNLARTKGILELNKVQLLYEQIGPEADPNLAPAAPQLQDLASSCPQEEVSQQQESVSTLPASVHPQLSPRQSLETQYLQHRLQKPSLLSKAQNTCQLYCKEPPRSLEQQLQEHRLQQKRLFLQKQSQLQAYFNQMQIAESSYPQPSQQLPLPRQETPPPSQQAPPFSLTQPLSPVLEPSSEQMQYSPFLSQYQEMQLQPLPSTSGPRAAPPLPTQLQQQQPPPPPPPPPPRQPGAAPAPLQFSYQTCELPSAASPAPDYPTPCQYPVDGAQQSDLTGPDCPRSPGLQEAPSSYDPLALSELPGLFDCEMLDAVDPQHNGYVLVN
UniProt Q9BRG2: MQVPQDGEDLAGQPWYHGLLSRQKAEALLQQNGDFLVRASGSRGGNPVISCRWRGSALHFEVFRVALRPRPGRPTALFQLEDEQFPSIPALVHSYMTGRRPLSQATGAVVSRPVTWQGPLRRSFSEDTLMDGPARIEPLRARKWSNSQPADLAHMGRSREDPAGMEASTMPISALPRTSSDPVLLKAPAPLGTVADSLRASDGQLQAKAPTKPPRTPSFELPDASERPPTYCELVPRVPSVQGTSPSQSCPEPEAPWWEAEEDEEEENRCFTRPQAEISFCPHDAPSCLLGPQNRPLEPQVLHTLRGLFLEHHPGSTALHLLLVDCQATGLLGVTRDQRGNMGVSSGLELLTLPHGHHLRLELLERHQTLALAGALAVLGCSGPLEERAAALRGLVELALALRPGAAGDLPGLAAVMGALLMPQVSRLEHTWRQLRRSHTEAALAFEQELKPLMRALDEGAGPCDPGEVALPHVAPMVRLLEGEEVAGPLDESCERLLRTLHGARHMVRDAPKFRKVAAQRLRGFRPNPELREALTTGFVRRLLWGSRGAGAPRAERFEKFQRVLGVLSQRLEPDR
UniProt O43255: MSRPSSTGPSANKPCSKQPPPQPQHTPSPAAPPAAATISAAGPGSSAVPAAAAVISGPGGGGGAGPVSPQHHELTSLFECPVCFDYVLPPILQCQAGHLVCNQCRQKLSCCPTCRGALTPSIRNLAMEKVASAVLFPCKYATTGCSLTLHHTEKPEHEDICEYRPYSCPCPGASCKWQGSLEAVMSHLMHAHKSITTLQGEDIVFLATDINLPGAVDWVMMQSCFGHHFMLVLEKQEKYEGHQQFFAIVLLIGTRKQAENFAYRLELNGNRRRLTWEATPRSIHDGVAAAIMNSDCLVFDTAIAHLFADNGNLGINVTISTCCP
UniProt Q96T21: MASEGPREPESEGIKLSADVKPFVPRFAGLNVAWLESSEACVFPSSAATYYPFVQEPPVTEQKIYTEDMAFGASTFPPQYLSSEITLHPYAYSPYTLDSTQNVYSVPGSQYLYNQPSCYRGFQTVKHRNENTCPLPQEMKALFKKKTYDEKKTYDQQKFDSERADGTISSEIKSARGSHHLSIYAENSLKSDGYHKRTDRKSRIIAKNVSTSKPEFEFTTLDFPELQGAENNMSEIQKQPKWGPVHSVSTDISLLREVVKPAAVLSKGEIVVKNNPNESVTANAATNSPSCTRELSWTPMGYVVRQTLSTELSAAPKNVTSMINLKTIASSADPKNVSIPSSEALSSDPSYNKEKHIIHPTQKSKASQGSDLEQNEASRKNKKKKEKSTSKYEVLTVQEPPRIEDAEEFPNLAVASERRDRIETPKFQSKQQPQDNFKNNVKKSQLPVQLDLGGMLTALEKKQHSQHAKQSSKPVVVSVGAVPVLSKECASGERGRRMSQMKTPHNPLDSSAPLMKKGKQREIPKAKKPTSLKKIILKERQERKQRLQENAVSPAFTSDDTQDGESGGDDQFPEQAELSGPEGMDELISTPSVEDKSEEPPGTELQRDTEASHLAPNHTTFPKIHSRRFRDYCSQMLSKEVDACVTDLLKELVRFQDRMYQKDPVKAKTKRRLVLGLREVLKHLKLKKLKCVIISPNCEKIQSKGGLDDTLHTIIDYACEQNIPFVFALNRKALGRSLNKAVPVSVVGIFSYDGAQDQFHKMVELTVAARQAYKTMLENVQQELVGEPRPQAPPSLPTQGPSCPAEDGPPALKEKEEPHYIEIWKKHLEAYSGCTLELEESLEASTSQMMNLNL
UniProt P55822: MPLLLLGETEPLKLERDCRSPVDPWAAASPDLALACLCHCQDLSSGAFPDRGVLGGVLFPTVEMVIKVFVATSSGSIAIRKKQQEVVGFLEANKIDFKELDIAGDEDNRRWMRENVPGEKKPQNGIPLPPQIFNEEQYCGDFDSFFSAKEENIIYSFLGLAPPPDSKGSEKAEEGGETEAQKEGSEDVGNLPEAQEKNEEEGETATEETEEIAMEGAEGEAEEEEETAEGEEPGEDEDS

Experiments:
Assay in all cases: log2 fold change, soluble protein after heating vs DMSO (PISA); higher = thermal stabilisation; K562 cells, 10 uM, 30 min; active = over 0.2 and 3.5 SD of the protein, either way, in both replicates (recomputed)
[1] = compound: C[C@H](C1=CC=C(C=C1)C(=O)NC2=C3C=CNC3=NC=C2)N
Method in brief: (§1)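 Values are thermal stability changes relative to control samples and are taken from duplicates. They are stated as log2 fold changes. Before quantification by TMTpro 16plex LC-MS/MS with equalised channel sums, K562 cells at 2×10^6 cells/mL were treated with 10 μM compound for 30 min, heated in aliquots for 3 min across 48°C-58°C, pooled, extracted in PBS with 0.5% NP-40 at 4°C, and centrifuged at 21,000xg for 90 min to give the soluble supernatant.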

[2] = compound: C[C@H](Nc1ncnc2nc[nH]c12)c1cc2cccc(Cl)c2c(=O)n1-c1ccccc1 [duvelisib]
Method in brief: as §1

[3] = compound: Cc1cc(Nc2cc(CN3CCOCC3)c3nc(C)c(Cc4ccc(Cl)cc4F)n3n2)n[nH]1 [gandotinib]
Method in brief: as §1

[4] = compound: Cc1cc(SCc2sc(-c3ccc(C(F)(F)F)cc3)nc2C)ccc1OCC(=O)O
Method in brief: as §1

[5] = compound: Cc1cccc(CC(=O)N2CCc3c2ccc(-c2cn(C)c4ncnc(N)c24)c3F)n1
Method in brief: as §1

[6] = compound: Cc1nc(Nc2ncc(C(=O)Nc3c(C)cccc3Cl)s2)cc(N2CCN(CCO)CC2)n1 [dasatinib]
Method in brief: as §1

[7] = compound: Cn1cc(-c2ccc3c(c2)CCN3C(=O)Cc2cccc(C(F)(F)F)c2)c2c(N)ncnc21
Method in brief: as §1

[8] = compound: Cn1cncc1[C@@](N)(c1ccc(Cl)cc1)c1ccc2c(c1)c(-c1cccc(Cl)c1)cc(=O)n2C [tipifarnib]
Method in brief: as §1

[9] = compound: FC(F)(F)c1ccc(/C=C/c2nc(COc3ccc(CCCCn4ccnn4)cc3)co2)cc1 [mubritinib]
Method in brief: as §1

[10] = compound: Cc1cc(Nc2cc(N3CCN(C)CC3)nc(Sc3ccc(NC(=O)C4CC4)cc3)n2)n[nH]1 [tozasertib]
Method in brief: as §1

[11] = compound: Cc1ccc(NC(=O)c2ccc(CN3CC[C@H](N(C)C)C3)c(C(F)(F)F)c2)cc1Nc1nccc(-c2cncnc2)n1 [bafetinib]
Method in brief: as §1

[12] = compound: C[C@@H](Oc1cc(-c2cnn(C3CCNCC3)c2)cnc1N)c1c(Cl)ccc(F)c1Cl [crizotinib]
Method in brief: as §1

[13] = compound: Cc1ccc(-n2nc(C(C)(C)C)cc2NC(=O)Nc2ccc(OCCN3CCOCC3)c3ccccc23)cc1 [doramapimod]
Method in brief: as §1

[14] = compound: Cc1ccc(C(=O)N(CCCN)[C@@H](c2nc3cc(Cl)ccc3c(=O)n2Cc2ccccc2)C(C)C)cc1 [ispinesib]
Method in brief: as §1

[15] = compound: Cn1cc(-c2ccc3nnc(C(F)(F)c4ccc5ncccc5c4)n3n2)cn1
Method in brief: as §1

[16] = compound: Cc1cn(-c2cc(NC(=O)c3ccc(C)c(Nc4nccc(-c5cccnc5)n4)c3)cc(C(F)(F)F)c2)cn1 [nilotinib]
Method in brief: as §1

[17] = compound: Cc1nc(Nc2n[nH]c3c2CN(C(=O)N[C@H](CN(C)C)c2ccccc2)C3(C)C)c2sccc2n1
Method in brief: as §1

[18] = compound: Cc1ncc(-c2ccnc(Nc3ccc(S(C)(=O)=O)cc3)n2)n1C(C)C
Method in brief: as §1

[19] = compound: C[C@@H]1COCCN1C2=NC(=NC(=C2)C3(CC3)S(=O)(=O)C)C4=C5C=CNC5=CC=C4
Method in brief: as §1

Measured: log2 fold change

SHROOM4 (UniProt Q9ULL8)
inactive: [1] 0.254 | [2] -0.075 | [3] 0.266 | [4] -0.279 | [5] 0.063 | [6] 0.239 | [7] -0.381 | [8] 0.247 | [9] 0.07

SERPINB7 (UniProt O75635)
inactive: [2] -0.057 | [3] -0.135 | [10] -0.189 | [4] -0.202 | [11] 0.175 | [5] 0.254 | [6] -0.03 | [9] 0.203

SELENOI (UniProt Q9C0D9)
inactive: [12] -0.295 | [13] -0.025 | [14] -0.368 | [15] 0

SENP8 (UniProt Q96LD8)
inactive: [12] 0.003 | [13] -0.193 | [16] -0.149 | [17] -0.163 | [18] -0.056

SGSH (UniProt P51688)
inactive: [1] 0.127 | [16] -0.146 | [17] -0.13 | [18] -0.016 | [7] -0.122

SERPING1 isoform 3 (UniProt P05155)
inactive: [1] 0.044 | [2] -0.082 | [10] -0.039 | [4] -0.113 | [6] -0.093 | [7] 0.303

SERBP1 isoform 3 (UniProt Q8NC51)
inactive: [19] -0.239 | [2] -0.201 | [3] 0.146 | [10] -0.027 | [4] -0.064 | [14] -0.367 | [11] -0.11 | [5] 0 | [16] 0.028 | [17] 0.015 | [6] 0.245 | [18] -0.082 | [15] -0.129 | [8] 0.11 | [9] 0.044

SEMG1 (UniProt P04279)
inactive: [1] -0.107 | [7] 0.036 | [9] 0.072

SEMA7A (UniProt O75326)
inactive: [19] 0.22 | [3] 0.035 | [14] 0.017 | [5] 0.04 | [15] 0.074

SKA2 (UniProt Q8WVK7)
inactive: [3] -0.046 | [14] -0.571 | [5] 0.001 | [15] -0.241

SHQ1 (UniProt Q6PI26)
inactive: [2] 0.126 | [4] 0.076 | [6] -0.079

SIGIRR (UniProt H0YDR5)
inactive: [12] 0.248 | [3] -0.052 | [13] -0.032 | [5] -0.195

SIK2 (UniProt Q9H0K1)
inactive: [14] -0.069 | [11] 0.058 | [15] -0.06 | [8] 0.199 | [9] 0.002

SFXN1 (UniProt D6RDG7)
inactive: [10] -0.119 | [9] 0.048

SF1 (UniProt H7BZT1)
inactive: [14] -0.188 | [15] -0.215

SH2D3A (UniProt Q9BRG2)
inactive: [12] -0.169 | [13] 0.035 | [14] 0.129 | [16] -0.001 | [17] -0.385 | [18] 0.12 | [15] 0.047

SF1 (UniProt H7C0N4)
inactive: [12] -0.087 | [1] -0.071 | [2] -0.067 | [10] 0.101 | [4] -0.146 | [13] 0.049 | [14] -0.017 | [11] -0.005 | [16] 0.114 | [17] 0.026 | [6] 0.035 | [18] 0.221 | [7] 0.11 | [15] -0.033 | [8] 0.04 | [9] -0.086

SIAH2 (UniProt O43255)
inactive: [12] 0.145 | [1] 0.22 | [13] 0.056 | [14] -0.022 | [11] -0.042 | [16] 0.027 | [17] -0.166 | [18] -0.01 | [7] -0.073 | [15] 0.011 | [8] 0.009 | [9] -0.155

SHARPIN (UniProt Q9H0F6)
inactive: [16] 0.35 | [17] -0.245 | [18] 0.034

Quoted from the results shown (2 entries):
SEMG1 (UniProt P04279)
inactive: [1] -0.107 | [7] 0.036 | [9] 0.072

SEMA7A (UniProt O75326)
inactive: [19] 0.22 | [3] 0.035 | [14] 0.017 | [5] 0.04 | [15] 0.074

Next results follow.

SECISBP2 (UniProt Q96T21)
inactive: [3] 0.101 | [10] -0.233 | [14] -0.255 | [5] -0.133 | [16] 0.158 | [17] -0.113 | [18] -0.165 | [15] 0.029 | [9] 0.213

SHROOM1 (UniProt Q2M3G4)
inactive: [19] -0.055 | [1] -0.064 | [14] 0.147 | [11] 0.375 | [7] -0.072 | [15] -0.185 | [8] 0.196

SH3BGR (UniProt P55822)
inactive: [19] 0.043 | [1] -0.04 | [2] 0.012 | [3] -0.206 | [4] 0.115 | [11] -0.031 | [5] 0.297 | [16] -0.069 | [17] -0.113 | [6] 0.056 | [18] -0.088 | [7] 0.019 | [8] 0.023 | [9] 0.019

SIVA1 (UniProt O15304)
inactive: [19] -0.092

SERAC1 (UniProt Q96JX3)
inactive: [1] 0.079 | [16] 0.047 | [17] -0.236 | [18] 0.111 | [7] -0.115 | [9] -0.027

SERPINA3 (UniProt P01011)
inactive: [19] -0.098

SIRT3 (UniProt Q9NTG7)
inactive: [12] -0.081 | [2] 0.123 | [3] -0.133 | [4] -0.057 | [13] 0.025 | [14] 0.223 | [5] 0.025 | [6] -0.021 | [15] -0.019 | [9] 0.087
